Reference: PMC10524267
These are yes or no findings as the source states them, for the method shown. Binding seen in cells or lysates may run through a third protein. For some assays here: A result given as binding can be weak or reduced; the word gives no strength.

Legend:
[1] = biological target: T1, mouse CX3CR1 coupled to the enzyme donor component of β-gal, in CHO-K1 reporter cells (mouse) (UniProt Q9Z0D9); experiment: condition: only with the CX3CR1 monoclonal antibody in the absence of CX3CL1; split reporter; β-gal enzyme fragment complementation (PathHunter) in mouse CX3CR1 CHO-K1 reporter cells; cells incubated with anti-CX3CR1 mAb clone 1C11 for 90 minutes at 37°C in the absence of CX3CL1; luminescence
T1 sequence: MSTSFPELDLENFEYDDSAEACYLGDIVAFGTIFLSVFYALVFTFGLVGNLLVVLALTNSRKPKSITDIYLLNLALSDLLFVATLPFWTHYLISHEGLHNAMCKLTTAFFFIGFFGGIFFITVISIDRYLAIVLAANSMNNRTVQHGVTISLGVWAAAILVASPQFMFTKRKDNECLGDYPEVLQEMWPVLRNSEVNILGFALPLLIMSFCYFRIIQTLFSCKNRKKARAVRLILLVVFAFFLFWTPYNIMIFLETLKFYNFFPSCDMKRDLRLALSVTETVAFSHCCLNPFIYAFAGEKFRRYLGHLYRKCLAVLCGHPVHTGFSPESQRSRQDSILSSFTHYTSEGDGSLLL

[2] = biological target: T1, mouse CX3CR1 coupled to the enzyme donor component of β-gal, in CHO-K1 reporter cells (mouse); experiment: split reporter; β-gal enzyme fragment complementation (PathHunter) in mouse CX3CR1 CHO-K1 reporter cells; cells incubated with agonist CX3CL1 for 90 minutes at 37°C; luminescence

β-arrestin coupled to the enzyme acceptor component of β-gal
binding [1]: no binding | binding [2]: binds
